Results are given in words; binding and its absence hold for the method and conditions named. Binding can be weak; no strength is given.
Target: T1, ZYG-9::mCherry (C. elegans) (UniProt G5EEM5)
T1 sequence: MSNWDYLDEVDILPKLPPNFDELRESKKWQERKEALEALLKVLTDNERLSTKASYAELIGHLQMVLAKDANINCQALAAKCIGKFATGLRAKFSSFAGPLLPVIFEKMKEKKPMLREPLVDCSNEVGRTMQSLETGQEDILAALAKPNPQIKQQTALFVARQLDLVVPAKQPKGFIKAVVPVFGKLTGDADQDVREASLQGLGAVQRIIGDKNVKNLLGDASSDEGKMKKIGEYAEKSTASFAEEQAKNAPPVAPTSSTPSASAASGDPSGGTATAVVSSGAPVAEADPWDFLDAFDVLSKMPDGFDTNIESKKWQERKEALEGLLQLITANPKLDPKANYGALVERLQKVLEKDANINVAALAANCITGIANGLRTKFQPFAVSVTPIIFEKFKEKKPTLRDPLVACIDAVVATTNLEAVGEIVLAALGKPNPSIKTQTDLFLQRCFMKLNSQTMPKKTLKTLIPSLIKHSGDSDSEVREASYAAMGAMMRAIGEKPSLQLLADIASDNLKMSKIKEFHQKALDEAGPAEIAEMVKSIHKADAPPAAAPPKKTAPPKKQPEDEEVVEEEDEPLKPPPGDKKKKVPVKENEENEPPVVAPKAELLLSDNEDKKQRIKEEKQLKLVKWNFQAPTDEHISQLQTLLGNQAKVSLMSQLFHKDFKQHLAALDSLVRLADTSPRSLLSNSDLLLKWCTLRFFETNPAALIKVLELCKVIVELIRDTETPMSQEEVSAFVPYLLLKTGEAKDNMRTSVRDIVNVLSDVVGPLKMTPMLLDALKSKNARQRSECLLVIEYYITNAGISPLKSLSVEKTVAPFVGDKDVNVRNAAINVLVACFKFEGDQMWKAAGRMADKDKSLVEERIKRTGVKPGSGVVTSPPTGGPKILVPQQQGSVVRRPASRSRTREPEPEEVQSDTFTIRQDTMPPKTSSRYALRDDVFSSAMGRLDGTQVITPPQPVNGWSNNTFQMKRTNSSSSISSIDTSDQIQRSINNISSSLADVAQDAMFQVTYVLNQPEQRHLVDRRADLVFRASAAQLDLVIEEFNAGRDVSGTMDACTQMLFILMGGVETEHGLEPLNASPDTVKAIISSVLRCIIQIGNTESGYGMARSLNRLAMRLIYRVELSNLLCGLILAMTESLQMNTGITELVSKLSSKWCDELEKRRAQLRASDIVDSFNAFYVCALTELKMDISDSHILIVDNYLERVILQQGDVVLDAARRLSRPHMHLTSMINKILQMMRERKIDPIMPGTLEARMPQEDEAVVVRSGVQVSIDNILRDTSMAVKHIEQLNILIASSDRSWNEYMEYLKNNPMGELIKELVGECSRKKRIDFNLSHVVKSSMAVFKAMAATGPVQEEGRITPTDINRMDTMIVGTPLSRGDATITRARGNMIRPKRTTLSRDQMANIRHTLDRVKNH
Assay: fluorescence microscopy of aggregates

binding: binds
Substance: TPXL-1::GFP (C. elegans)

Reference: doi:10.1101/093054 (bioRxiv, 2016)
